Patent publication US6605639B1, “Ligands of nuclear receptor” (Nuclear Receptor Research, Ltd., priority 1998, dated 2003)
“And” between values parts separate entries of the source, which are not always exact repeats. Identical values can stand only once.

Key:
DOCA hypertensive rats = assay: Aneurysm formation in the mesenteric artery of DOCA hypertensive rats; assay type: in vivo, rat; conditions: 7 weeks; for Arteriole count, Avg: 6 rats; for Arteriole count, individual rats: counted thrice, average
From the text: The compounds of the present invention show an effect of inhibiting periarteritis nodosa in a malignant hypertension model rat in which periarteritis nodosa arises in the mesenteric artery and progresses into aneurysm. Among aneurysms, those formed in the mesenteric artery can be treated quantitatively. Thus, the mesenteric artery was taken out and fixed with formalin. Then it was fat-stained and arterioles and aneurysms were counted thrice and the average aneurysm count per arteriole was calculated. To rats with renal hypofunction due to the excision of one kidney, […] saline, having a somewhat higher osmotic pressure than plasma, was given as drinking water and 10 mg/kg of deoxycorticosterone acetate (DOCA) (a mineral corticoid) was subcutaneously administered at intervals of 1 week. Twenty-four male Wistar rats were divided into 4 groups at random. After taking out the left kidney, each animal was allowed to stand and the operative wound was fused. […] The experiment was carried out for 7 weeks. Since the initiation of the experiment, the feed intake, water intake, urine, body weight and blood pressure of each group were measured once every three days.
The average blood pressure exceeded 180 mmHg in the 3rd week and attained 200 mmHg in the 4th week. […] In the 7th week, each animal was dissected and the mesenteric artery was taken out. After treating with formalin, the artery was fat-stained and aneurysms were counted. […] In the high-dose Compound-6 group, the average aneurysm count per arteriole was lowered to 0.27±0.05.
Arterioles and nodes in the mesenteric artery were each counted thrice and the average was calculated.
a) Appearance frequency=node count/arteriole count×100 (%).

[1] = tested on: rats with adjuvant arthritis; assay: Therapeutic effect on rat adjuvant arthritis; assay type: in vivo; conditions: 7 times
Method: Rats with arthritis employed in Experiment 1 were individuals which suffered from serious arthritis caused by the injection of an adjuvant 45 days ago and thus crawled on forelegs since they could not bend hind legs. Drug effects were evaluated by observing walking, observation with the naked eye of the severity of inflammation in hind legs and the volume of swelling in legs. To 19 SD male rats (weighing about 300 g), Freund's […] adjuvant containing dead tubercle bacillus Aoyama B strain was subcutaneously injected into the tail root to induce arthritis in hind legs. Compound-6 was suspended in a tragacanth gum solution and orally administered at a ratio of 0.5 ml/100 g body weight. Compound-6 was administered to 3 groups including the high-dose model (HM; 50 mg/kg), the medium-dose model (MM; 25 mg/kg) and the low-dose model (LM; 10 mg/kg). Administration was made once a day in morning continuously 7 times. During this period, the hind leg volume was measured at the initiation of the experiment and 2, 4 and 7 days thereafter. The volume change was calculated by referring the volume at the initiation of the experiment as to 100%. On the 7th day, the inflammation conditions in hind legs were evaluated in 5 grades with the naked eye.
Immediately after administration, the three Compound-6 groups were combined and divided again depending on the occurrence of arthritis (i.e., positive and negative groups). Then the data were compared with the data of the control group.

COc1c(Cl)c(C)c(C=O)c(O)c1C/C=C(C)/C=C/[C@@]1(C)[C@H](C)CCC(=O)[C@@H]1C [Compound-6, 4-O-methylASC]
Arteriole count, Avg (DOCA hypertensive rats; 10 mg/kg/day): 12.72 | Arteriole count, individual rats (DOCA hypertensive rats; 10 mg/kg/day): 9.00 and 11.33 and 11.00 and 14.67 and 17.00 and 13.33 | Arteriole count, Avg (DOCA hypertensive rats; 40 mg/kg/day): 12.78 | Arteriole count, individual rats (DOCA hypertensive rats; 40 mg/kg/day): 12.67 and 10.33 and 12.00 and 13.67 and 13.00 and 15.00 | Body weight change ([1]; HM group, 50 mg/kg oral once a day): 2.2 g/rat | Body weight change ([1]; LM group, 10 mg/kg oral once a day): 2.0 g/rat | Body weight change ([1]; MM group, 25 mg/kg oral once a day): 3.9 g/rat
